These are yes or no findings as the source states them, for the method shown. For some of these results: Where a sequence is shown, tags or fusion partners need not be part of it.
What was measured:
Test in all cases: DOSY NMR (translational diffusion); peptide alone, 70–120 µM, 100% D2O, 50 mM Tris pH 7.2, 10 °C; Rh by comparison with dioxane; both purified
[1] = biological target: HPr^9–30 wild-type peptide (residues 9-30 of HPr from Streptomyces coelicolor) (Streptomyces coelicolor)
[2] = biological target: HPr^9–30 P18A peptide (Streptomyces coelicolor)
[3] = biological target: HPr^9–30 F22A peptide (Streptomyces coelicolor)
[4] = biological target: HPr^9–30 I21A peptide (Streptomyces coelicolor)
[5] = biological target: HPr^9–30 V23A peptide (Streptomyces coelicolor)
[6] = biological target: HPr^9–30 P18A/I21A/V23A peptide (Streptomyces coelicolor)
[7] = biological target: HPr^9–30 P18A/I21A/F22A/V23A peptide (Streptomyces coelicolor)

In the case of GWAEGLHARPASIFVRAATATG (acetylated at the N-terminus; amidated at the C-terminus) [HPr^9–30 wild-type peptide (residues 9-30 of HPr from Streptomyces coelicolor)], the binding [1] is reported as “no binding (tested: 70 and 120 µM)”.

GWAEGLHARAASIFVRAATATG (acetylated at the N-terminus; amidated at the C-terminus) [HPr^9–30 P18A peptide] was tested, and the binding [2] was “no binding (tested: 70 and 120 µM)”.

With GWAEGLHARPASIAVRAATATG (acetylated at the N-terminus; amidated at the C-terminus) [HPr^9–30 F22A peptide] the binding [3] was “no binding (tested: 70 and 120 µM)”.

With GWAEGLHARPASAFVRAATATG (acetylated at the N-terminus; amidated at the C-terminus) [HPr^9–30 I21A peptide] the binding [4] was “no binding (tested: 70 and 120 µM)”.

GWAEGLHARPASIFARAATATG (acetylated at the N-terminus; amidated at the C-terminus) [HPr^9–30 V23A peptide] was tested, and the binding [5] was “no binding (tested: 70 and 120 µM)”.

For GWAEGLHARAASAFARAATATG (acetylated at the N-terminus; amidated at the C-terminus) [HPr^9–30 P18A/I21A/V23A peptide], the binding [6] was “no binding (tested: 70 and 120 µM)”.

With GWAEGLHARAASAAARAATATG (acetylated at the N-terminus; amidated at the C-terminus) [HPr^9–30 P18A/I21A/F22A/V23A peptide] the binding [7] was “no binding (tested: 70 and 120 µM)”.

Source: publication PMC8509676, “Residual Helicity at the Active Site of the Histidine Phosphocarrier, HPr, Modulates Binding Affinity to Its Natural Partners” (International Journal of Molecular Sciences, 2021)
